No constants are given. Whether binding was seen depends on the method and setting. In cells and extracts the contact can be indirect. A yes stands for co-enrichment or nearness to the bait. Other partners may have been found. Where a sequence is shown, tags or fusion partners need not be part of it.
T1: EYFP-tagged GL2 (EYFP:GL2) expressed in Arabidopsis plants (Arabidopsis) (UniProt P46607)
T1 sequence: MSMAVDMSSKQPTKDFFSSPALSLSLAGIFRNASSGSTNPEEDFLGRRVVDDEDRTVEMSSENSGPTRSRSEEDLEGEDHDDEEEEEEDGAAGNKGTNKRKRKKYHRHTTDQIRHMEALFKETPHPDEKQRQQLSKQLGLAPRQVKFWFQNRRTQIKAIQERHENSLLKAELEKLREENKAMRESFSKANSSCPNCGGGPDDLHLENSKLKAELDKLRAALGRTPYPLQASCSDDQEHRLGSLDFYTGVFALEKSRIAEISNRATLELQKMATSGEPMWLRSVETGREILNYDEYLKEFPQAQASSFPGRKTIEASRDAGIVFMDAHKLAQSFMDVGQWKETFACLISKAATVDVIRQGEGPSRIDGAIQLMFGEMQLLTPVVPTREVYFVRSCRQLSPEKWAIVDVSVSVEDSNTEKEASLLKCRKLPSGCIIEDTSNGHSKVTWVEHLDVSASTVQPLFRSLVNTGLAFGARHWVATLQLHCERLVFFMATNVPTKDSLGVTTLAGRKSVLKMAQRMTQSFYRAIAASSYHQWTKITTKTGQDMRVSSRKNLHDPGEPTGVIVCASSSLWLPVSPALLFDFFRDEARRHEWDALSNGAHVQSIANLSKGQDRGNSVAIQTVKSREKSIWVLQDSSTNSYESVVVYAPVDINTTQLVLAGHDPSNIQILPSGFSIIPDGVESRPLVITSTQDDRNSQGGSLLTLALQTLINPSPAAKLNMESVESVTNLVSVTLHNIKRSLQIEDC

The chains behind the UniProt entries cited, without tags or fusion partners.
UniProt F4JL11: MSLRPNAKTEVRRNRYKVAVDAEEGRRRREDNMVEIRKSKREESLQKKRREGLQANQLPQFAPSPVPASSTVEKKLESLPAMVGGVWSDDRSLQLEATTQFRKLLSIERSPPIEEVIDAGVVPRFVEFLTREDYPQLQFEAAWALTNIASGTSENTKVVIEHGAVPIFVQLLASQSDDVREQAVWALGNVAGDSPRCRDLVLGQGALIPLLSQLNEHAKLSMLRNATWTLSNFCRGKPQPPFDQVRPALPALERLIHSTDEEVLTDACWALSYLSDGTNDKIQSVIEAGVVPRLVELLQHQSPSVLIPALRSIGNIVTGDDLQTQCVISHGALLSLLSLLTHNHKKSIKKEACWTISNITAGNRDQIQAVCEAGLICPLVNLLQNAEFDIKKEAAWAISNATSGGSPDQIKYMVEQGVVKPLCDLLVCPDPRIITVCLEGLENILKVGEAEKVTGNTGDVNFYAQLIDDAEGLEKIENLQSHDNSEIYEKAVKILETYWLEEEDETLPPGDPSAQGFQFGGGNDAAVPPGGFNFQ
UniProt Q96321: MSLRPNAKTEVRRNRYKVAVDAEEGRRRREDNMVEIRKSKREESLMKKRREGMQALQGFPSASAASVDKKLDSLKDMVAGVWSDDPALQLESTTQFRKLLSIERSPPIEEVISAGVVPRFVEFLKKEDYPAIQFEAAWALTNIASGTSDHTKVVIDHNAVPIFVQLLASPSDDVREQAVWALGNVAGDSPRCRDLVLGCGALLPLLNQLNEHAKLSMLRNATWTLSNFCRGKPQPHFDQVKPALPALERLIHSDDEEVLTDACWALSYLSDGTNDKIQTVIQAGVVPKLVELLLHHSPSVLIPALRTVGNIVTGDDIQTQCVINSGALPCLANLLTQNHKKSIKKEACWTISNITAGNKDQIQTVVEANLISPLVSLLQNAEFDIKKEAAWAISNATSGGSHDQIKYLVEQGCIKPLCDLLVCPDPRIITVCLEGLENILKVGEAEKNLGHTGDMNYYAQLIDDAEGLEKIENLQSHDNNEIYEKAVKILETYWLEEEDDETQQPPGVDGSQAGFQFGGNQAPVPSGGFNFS


target: T1, EYFP-tagged GL2 (EYFP:GL2) expressed in Arabidopsis plants (Arabidopsis); test: affinity purification with mass spectrometry

Row | Molecule | binding
1 | Importin α isoform IMPα-2, endogenous in Arabidopsis plants (from UniProt F4JL11 1-535) | binds
2 | Importin α isoform IMPα-1, endogenous in Arabidopsis plants (from UniProt Q96321 1-532) | binds
3 | Importin α isoform IMPα-6, endogenous in Arabidopsis plants (protein, UniProt Q9FWY7 1-538) MSYKPSAKTEVRRNRYKVSVDADEGRRRREDNMVEIRKNKREENLQKKRREGFNPSMASQPGQDFSSSLPTETRLENIQQMIAGVMSEDRDLQLEATASFRRLLSIERNPPINEVVQSGVVPHIVQFLSRDDFTQLQFEAAWALTNIASGTSENTRVIIDSGAVPLFVKLLSSASEEVREQAVWALGNVAGDSPKCRDHVLSCEAMMSLLAQFHEHSKLSMLRNATWTLSNFCRGKPQPAFEQTKAALPALERLLHSTDEEVLTDASWALSYLSDGTNEKIQTVIDAGVIPRLVQLLAHPSPSVLIPALRTIGNIVTGDDIQTQAVISSQALPGLLNLLKNTYKKSIKKEACWTISNITAGNTSQIQEVFQAGIIRPLINLLEIGEFEIKKEAVWAISNATSGGNHDQIKFLVSQGCIRPLCDLLPCPDPRVVTVTLEGLENILKVGEAEKNLGNTGNDNLYAQMIEDADGLDKIENLQSHDNNEIYEKAVKILESYWAADDEEEDIGGVDAPENVQSSGFQFGNQSGNAPTGGFNFG | binds
